Measurements: patent publication US20230220084A1
These are yes or no findings as the source states them, for the method shown. Some results given as binding are weak or reduced against the parent protein; the word gives no strength.

Key:
[1] = target: cCLEC12A-His (cynomolgus monkey); test: SPR, purified murine mAb, Cyno CLEC12A-His
[2] = target: cCLEC12A-His (cynomolgus monkey); test: SPR
[3] = target: cCLEC12A-His (cynomolgus monkey); test: SPR, purified murine mAb

Measured: binding

B1: 15A10.G8 (antibody, V domains shown)
VH: EVQLQESGAELVRSGASIKLSCAASAFNIKDYFIHWVRQRPDQGLEWIGWIDPENDDTEYAPKFQDKATMTADTSSNTAYLQLSSLTSADTAVYYCNALWSRGGYFDYWGQGTTLTVSS
VL: EVLLTQSPAIIAASPGEKVTITCSARSSVSYMSWYQQKPGSSPKIWIYGISKLASGVPARFSGSGSGTYFSFTINNLEAEDVATYYCQQRSYYPFTFGSGTKLEIK
binds: all assays above
